± gives the standard deviation of the averaged measurements. The list shows a part of the results, in another mix than the full data. Most entries show no effect beyond the scatter of the controls.

Sequences of proteins named here, by UniProt entry; tags and fusion partners are left off. A change or cut given only in a name is not applied to a line headed by its entry.
UniProt Q96GY3: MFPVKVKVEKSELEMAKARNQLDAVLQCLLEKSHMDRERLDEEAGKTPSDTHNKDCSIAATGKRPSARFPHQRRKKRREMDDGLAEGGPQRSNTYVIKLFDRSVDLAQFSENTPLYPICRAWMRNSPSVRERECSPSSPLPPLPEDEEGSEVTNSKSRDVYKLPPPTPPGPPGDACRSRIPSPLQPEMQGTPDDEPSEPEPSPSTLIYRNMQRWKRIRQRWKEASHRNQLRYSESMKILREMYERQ
UniProt Q96E52: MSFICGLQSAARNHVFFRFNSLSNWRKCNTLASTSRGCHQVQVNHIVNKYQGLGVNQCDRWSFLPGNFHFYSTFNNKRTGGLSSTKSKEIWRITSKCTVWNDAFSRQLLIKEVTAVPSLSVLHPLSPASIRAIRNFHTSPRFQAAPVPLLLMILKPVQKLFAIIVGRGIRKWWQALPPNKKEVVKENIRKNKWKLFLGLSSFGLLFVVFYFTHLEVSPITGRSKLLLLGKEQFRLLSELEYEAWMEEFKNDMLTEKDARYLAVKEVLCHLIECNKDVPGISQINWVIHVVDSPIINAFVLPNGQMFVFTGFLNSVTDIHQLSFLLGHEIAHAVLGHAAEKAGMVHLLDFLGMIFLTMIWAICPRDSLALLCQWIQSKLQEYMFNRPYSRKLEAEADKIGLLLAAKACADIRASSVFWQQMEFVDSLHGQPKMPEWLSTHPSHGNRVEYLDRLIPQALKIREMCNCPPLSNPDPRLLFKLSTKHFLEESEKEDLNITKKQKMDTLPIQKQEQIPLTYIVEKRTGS
UniProt Q96JH7: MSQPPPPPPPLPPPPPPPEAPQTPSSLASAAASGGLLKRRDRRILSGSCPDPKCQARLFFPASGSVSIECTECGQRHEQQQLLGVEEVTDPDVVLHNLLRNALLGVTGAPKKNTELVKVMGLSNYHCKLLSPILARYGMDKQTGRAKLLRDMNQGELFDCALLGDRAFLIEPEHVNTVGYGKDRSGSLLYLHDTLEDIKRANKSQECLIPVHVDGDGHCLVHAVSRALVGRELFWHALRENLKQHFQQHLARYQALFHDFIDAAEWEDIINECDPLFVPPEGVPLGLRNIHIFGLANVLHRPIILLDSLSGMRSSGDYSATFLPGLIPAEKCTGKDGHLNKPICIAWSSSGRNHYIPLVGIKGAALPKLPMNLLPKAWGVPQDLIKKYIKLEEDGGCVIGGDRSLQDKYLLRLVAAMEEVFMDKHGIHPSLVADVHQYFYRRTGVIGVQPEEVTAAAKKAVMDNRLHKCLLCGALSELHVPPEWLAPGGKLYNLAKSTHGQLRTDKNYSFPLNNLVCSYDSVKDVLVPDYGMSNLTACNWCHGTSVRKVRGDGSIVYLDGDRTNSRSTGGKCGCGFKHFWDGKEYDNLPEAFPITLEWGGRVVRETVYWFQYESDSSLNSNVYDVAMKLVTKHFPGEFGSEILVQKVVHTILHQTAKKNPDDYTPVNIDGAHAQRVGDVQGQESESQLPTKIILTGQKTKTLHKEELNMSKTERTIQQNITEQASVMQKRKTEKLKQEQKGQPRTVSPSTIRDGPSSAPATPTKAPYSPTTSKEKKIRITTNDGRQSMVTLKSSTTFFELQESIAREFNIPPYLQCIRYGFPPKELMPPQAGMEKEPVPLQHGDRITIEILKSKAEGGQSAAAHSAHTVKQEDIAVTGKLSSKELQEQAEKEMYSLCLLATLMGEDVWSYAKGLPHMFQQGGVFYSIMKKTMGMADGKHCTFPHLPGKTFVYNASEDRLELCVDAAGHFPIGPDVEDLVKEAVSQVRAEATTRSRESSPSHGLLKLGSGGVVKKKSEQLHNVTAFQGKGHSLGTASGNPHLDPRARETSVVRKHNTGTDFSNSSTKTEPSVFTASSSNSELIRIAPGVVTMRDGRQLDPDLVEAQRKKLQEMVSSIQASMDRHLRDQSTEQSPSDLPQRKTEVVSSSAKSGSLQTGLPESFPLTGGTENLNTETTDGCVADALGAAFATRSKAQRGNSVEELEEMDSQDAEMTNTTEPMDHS
UniProt Q969G3, whole entry: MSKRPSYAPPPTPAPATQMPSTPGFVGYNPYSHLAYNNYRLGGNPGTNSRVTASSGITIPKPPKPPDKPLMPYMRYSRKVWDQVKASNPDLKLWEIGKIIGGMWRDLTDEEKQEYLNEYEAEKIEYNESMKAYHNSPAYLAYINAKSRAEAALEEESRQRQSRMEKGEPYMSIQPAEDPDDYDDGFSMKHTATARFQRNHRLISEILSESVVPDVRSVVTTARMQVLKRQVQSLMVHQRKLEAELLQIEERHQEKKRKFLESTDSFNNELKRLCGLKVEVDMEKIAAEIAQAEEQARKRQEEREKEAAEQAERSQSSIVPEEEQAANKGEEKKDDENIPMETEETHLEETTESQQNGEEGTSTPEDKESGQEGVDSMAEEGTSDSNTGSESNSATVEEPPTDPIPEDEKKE
UniProt Q96PK6: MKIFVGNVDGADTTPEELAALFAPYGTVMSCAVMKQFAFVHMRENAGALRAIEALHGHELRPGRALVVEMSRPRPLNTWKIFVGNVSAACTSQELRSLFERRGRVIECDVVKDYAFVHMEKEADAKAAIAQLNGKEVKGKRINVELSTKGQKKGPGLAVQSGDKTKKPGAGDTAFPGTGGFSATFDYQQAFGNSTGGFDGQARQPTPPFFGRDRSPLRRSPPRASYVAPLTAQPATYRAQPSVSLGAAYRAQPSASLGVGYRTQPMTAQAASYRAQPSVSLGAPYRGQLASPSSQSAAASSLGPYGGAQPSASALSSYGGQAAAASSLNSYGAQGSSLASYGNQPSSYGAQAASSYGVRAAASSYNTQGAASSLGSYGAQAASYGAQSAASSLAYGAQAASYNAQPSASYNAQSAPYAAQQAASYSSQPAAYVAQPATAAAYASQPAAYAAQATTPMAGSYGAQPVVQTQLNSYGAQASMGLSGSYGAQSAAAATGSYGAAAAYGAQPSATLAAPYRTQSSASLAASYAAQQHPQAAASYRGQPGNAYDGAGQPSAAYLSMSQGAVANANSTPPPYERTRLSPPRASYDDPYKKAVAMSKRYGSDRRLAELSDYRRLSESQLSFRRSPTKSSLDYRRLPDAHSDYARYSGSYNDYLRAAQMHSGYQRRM
UniProt Q96DH6: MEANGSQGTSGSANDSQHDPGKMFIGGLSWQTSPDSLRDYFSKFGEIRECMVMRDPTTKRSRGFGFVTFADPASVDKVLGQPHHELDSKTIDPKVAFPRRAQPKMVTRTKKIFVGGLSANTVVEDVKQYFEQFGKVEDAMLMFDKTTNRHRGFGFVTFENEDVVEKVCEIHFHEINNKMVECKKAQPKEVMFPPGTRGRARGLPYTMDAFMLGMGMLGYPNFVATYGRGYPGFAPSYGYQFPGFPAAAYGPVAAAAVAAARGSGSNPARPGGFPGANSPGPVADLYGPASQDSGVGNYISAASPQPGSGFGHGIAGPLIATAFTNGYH
UniProt Q96E09: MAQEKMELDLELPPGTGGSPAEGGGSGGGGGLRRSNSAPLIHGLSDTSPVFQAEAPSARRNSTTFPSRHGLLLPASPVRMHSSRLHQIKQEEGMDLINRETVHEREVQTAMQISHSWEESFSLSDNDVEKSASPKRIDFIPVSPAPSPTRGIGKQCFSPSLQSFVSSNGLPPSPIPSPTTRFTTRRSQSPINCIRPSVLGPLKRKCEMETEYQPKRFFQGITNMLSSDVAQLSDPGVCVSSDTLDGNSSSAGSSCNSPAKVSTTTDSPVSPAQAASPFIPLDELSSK
UniProt Q93100: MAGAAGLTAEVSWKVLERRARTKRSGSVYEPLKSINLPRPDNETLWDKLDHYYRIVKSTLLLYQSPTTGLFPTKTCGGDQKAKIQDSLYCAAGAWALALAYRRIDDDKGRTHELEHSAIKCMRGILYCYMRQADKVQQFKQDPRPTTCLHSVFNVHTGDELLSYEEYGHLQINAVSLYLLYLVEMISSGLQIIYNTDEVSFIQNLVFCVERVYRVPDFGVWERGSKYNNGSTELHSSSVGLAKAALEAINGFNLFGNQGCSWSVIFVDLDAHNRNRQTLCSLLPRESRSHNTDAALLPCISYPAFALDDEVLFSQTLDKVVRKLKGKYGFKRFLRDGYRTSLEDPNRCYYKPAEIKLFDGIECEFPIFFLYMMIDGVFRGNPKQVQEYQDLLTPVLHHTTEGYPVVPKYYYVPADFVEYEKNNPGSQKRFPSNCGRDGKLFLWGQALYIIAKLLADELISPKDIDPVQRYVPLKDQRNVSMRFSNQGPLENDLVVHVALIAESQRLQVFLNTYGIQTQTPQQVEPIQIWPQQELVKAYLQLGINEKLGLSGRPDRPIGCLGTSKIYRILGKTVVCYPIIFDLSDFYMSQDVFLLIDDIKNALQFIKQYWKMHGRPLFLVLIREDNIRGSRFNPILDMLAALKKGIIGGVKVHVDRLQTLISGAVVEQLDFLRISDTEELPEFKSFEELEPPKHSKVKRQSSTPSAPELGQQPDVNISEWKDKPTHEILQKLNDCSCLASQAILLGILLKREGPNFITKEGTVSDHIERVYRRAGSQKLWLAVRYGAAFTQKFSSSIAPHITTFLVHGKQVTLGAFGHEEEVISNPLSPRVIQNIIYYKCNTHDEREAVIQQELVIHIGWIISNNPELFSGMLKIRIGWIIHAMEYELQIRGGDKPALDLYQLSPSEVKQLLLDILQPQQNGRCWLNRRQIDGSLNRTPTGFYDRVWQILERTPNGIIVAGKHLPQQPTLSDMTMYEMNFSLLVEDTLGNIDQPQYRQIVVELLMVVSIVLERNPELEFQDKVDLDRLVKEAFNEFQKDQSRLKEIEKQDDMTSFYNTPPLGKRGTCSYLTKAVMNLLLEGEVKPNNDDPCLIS
UniProt Q96BY9: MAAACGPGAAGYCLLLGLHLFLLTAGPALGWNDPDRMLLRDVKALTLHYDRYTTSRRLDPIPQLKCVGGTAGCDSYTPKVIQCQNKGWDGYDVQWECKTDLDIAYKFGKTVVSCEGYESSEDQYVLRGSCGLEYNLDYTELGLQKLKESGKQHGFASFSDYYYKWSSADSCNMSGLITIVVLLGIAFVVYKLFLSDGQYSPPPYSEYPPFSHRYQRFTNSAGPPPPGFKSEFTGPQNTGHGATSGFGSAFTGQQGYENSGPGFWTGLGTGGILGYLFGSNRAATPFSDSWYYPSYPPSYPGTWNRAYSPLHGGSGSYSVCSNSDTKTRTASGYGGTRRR
UniProt Q96EY8: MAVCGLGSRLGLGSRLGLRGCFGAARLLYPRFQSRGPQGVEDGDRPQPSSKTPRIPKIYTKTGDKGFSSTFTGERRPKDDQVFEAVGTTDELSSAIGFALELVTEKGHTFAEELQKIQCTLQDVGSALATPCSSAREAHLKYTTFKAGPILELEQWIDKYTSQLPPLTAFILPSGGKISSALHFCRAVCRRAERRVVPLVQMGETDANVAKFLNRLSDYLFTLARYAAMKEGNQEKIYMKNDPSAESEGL
UniProt Q969E8: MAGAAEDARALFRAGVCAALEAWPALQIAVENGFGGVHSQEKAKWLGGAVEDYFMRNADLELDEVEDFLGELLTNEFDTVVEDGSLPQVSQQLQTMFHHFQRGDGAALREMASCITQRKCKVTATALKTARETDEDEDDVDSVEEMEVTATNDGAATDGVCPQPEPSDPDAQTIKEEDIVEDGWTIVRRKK
UniProt Q96CB9: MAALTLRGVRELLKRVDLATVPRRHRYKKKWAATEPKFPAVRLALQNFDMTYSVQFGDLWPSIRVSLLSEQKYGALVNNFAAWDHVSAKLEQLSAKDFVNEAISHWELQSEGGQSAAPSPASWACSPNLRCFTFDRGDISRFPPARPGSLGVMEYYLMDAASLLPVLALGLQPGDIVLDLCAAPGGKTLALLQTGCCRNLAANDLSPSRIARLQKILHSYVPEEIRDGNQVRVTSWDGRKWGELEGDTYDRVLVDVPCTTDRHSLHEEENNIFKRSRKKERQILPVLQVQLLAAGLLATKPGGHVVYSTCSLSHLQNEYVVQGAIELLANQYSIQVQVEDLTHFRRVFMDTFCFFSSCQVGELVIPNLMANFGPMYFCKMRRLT
UniProt Q969Y2: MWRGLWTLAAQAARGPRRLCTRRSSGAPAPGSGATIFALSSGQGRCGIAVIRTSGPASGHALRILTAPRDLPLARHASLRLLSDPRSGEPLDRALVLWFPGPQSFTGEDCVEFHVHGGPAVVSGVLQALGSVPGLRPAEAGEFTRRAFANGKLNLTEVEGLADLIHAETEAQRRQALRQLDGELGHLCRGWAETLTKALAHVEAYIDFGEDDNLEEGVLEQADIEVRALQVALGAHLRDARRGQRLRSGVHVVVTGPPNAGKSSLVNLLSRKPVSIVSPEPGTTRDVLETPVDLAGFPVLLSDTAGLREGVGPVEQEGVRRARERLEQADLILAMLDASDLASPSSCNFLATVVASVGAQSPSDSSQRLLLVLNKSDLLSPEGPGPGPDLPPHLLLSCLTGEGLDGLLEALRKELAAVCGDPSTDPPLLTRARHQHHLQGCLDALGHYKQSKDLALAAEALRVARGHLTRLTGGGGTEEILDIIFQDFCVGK

Compound in the first assay: Nc1ncnc2c1ncn2[C@@H]1O[C@H](COP(=O)(O)OP(=O)(O)NP(=O)(O)O)[C@@H](O)[C@H]1O [adenylyl imidodiphosphate]
Nature of the assay: NP40-soluble protein abundance relative to vehicle (solubility fold change) (ratio); higher = more soluble protein in presence of AMP-PNP. The settings on record: concentration: 0.1mM. An outline of the steps: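 Jurkat crude lysate prepared with a Dounce homogeniser was treated at eight concentrations spanning 0.1 to 10 mM, 10 min at room temperature then 3 min at 37 °C. Solubilisation with 0.8% NP40 and benzonase and ultracentrifugation preceded TMT labelling of the supernatant for LC-MS/MS. Fold change against the detergent-processed vehicle was determined per replicate from vsn-normalised intensities, across three independent experiments.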
LIN37 (UniProt Q96GY3): the NP40-soluble protein abundance amounted to 0.996 ± 0.018.
The same measure, in the same setting: then DHTKD1 (UniProt Q96HY7), with 1.01 ± 0.024.
In the case of OMA1 (UniProt Q96E52), the NP40-soluble protein abundance was found to be 0.979 ± 0.058.
Same read-out and setting: the same measure for UniProt Q96HI0 and related entries: 1 ± 0.019; for UniProt Q96JP5 and related entries: 0.999 ± 0.026.
The same measure, in the same setting: the same measure for VCPIP1 (UniProt Q96JH7): 0.998 ± 0.021.
The same measure, in the same setting: then PYCR2 (UniProt Q96C36), with 0.965 ± 0.03; and UniProt Q969M7 and related entries, with 0.989 ± 0.029; and UniProt Q96BY6 and related entries, with 1.01 ± 0.016.
Take SMARCE1 (UniProt Q969G3): the NP40-soluble protein abundance turned out to be 0.997 ± 0.1.
On the same count and under the same terms, then UniProt Q96JM3, with 1 ± 0.022.

The assay is the same for the next values; noted with them: concentration: 0.5mM.
Take RBM14 (UniProt Q96PK6): the NP40-soluble protein abundance turned out to be 1.03 ± 0.021.
Take MSI2 (UniProt Q96DH6): the NP40-soluble protein abundance was found to be 1.03 ± 0.046.
The same measure, in the same setting: then UniProt Q96G28 and related entries, with 1.01 ± 0.068; and UniProt Q96KB5 and related entries, with 0.979 ± 0.025.
The same measure, in the same setting: the same measure for FAM122A (UniProt Q96E09): 1.003 ± 0.0017; for PGM2 (UniProt Q96G03): 0.991 ± 0.081.
Same read-out and setting: the same measure for UniProt Q96JK2 and related entries: 1 ± 0.052; for UniProt Q96J02 and related entries: 1 ± 0.026.
For the target UniProt Q96E11 and related entries, the NP40-soluble protein abundance was determined as 0.993 ± 0.06.
Still for that read-out and setting: then ITPKC (UniProt Q96DU7), with 0.963 ± 0.023; and UniProt Q96GJ1 and related entries, with 0.919 ± 0.035.
The same measure, in the same setting: the same measure for NRBF2 (UniProt Q96F24): 0.995 ± 0.078.
On the same count and under the same terms, then UniProt Q93100 and related entries, with 0.975 ± 0.11; and UniProt Q96BY9 and related entries, with 1.0238 ± 0.001; and UniProt Q96I15 and related entries, with 0.982 ± 0.019.
Turning to UniProt Q96PE3 and related entries, the NP40-soluble protein abundance came out at 0.97 ± 0.029.
Consider MMAB (UniProt Q96EY8), for which the NP40-soluble protein abundance was found to be 0.973 ± 0.044.
The same measure, in the same setting: the same measure for TSR2 (UniProt Q969E8): 1.03 ± 0.03; for UniProt Q96ES7: 0.978 ± 0.05; for UniProt Q96J84 and related entries: 1 ± 0.053.
Same read-out and setting: then NSUN4 (UniProt Q96CB9), with 0.984 ± 0.048; and SLC7A6OS (UniProt Q96CW6), with 1.03 ± 0.04; and C8orf76 (UniProt Q96K31), with 1.01 ± 0.021.
The same measure, in the same setting: the same measure for ANKRD27 (UniProt Q96NW4): 1 ± 0.014; for UniProt Q969Y2 and related entries: 0.967 ± 0.029; for AIDA (UniProt Q96BJ3): 1.03 ± 0.022.
As to LIN37 (UniProt Q96GY3), the NP40-soluble protein abundance was determined as 0.977 ± 0.013.
Still for that read-out and setting: the same measure for DHTKD1 (UniProt Q96HY7): 0.979 ± 0.071; for OMA1 (UniProt Q96E52): 0.978 ± 0.089.
As for UniProt Q96HI0 and related entries, the NP40-soluble protein abundance was 0.965 ± 0.034.
On the same count and under the same terms, the same measure for UniProt Q96JP5 and related entries: 1.05 ± 0.079; for VCPIP1 (UniProt Q96JH7): 0.9789 ± 0.0078.
Still for that read-out and setting: the same measure for PYCR2 (UniProt Q96C36): 0.9825 ± 0.007; for UniProt Q969M7 and related entries: 0.983 ± 0.054.
As for UniProt Q96BY6 and related entries, the NP40-soluble protein abundance amounted to 0.978 ± 0.026.
Regarding SMARCE1 (UniProt Q969G3), the NP40-soluble protein abundance was found to be 1.09 ± 0.17.
The same measure, in the same setting: the same measure for UniProt Q96JM3: 1.02 ± 0.043.

(Values after the supplement of paper PMC6411743.)
